# Assay results taken from article PMC7862700.
# Chains of the proteins cited; added tags and fusions are not shown. Lines headed by an entry give the natural chain unless they say otherwise; changes in a name come on top.
# UniProt P50549: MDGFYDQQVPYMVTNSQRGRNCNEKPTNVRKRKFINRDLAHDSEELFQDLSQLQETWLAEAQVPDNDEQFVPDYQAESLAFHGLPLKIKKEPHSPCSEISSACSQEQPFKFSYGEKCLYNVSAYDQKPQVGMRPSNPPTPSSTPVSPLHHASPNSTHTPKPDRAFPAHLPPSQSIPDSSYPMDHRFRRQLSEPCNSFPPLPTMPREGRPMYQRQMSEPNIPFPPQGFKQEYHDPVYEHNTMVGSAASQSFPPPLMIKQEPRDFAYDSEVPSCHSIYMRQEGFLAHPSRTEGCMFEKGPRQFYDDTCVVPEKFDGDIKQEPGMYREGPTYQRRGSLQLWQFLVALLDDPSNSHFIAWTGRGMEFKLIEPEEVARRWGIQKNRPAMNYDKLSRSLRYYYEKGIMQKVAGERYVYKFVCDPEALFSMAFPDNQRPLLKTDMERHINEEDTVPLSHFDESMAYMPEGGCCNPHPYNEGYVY
# UniProt P32519: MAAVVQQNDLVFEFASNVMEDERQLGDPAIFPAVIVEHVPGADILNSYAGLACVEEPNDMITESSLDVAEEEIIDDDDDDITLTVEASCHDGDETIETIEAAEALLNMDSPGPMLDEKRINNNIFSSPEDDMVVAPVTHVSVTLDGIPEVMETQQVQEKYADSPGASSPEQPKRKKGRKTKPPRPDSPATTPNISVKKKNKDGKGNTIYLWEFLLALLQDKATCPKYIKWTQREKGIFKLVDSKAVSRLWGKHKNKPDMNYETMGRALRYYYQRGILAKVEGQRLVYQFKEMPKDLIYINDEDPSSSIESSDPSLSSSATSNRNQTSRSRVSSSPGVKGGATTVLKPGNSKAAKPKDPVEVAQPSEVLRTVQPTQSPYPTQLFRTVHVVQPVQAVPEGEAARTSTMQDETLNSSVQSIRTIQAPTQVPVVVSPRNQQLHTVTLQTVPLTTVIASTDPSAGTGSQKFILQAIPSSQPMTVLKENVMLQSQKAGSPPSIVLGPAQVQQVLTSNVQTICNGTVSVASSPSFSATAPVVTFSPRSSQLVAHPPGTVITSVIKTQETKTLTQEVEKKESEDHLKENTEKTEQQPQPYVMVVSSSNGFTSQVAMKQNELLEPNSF
# This is a selection; strong and weak results do not stand in their true shares. For some of these results: At the low end of the ranking the order means little. The list shows a part of the results. For some of these results: Construct or isoform of the protein are uncertain.
# How the values were obtained:
# Test in all cases: DAPPL (digital affinity profiling via proximity ligation, sequencing)
# Settings in all cases: 10 mM Tris-HCl pH 7.5, 50 mM NaCl, 1 mM DTT, 4% glycerol, room temperature, 30 min; GST-TFs on glutathione beads, 16-mer random dsDNA library, 0.1% …; high values mean tight binding; double strand, one strand shown; scale: fold enrichment (6-mer frequency, TF over GST control)
# ETV4 = target: T1, ETV4 (UniProt P43268)
# T1 sequence: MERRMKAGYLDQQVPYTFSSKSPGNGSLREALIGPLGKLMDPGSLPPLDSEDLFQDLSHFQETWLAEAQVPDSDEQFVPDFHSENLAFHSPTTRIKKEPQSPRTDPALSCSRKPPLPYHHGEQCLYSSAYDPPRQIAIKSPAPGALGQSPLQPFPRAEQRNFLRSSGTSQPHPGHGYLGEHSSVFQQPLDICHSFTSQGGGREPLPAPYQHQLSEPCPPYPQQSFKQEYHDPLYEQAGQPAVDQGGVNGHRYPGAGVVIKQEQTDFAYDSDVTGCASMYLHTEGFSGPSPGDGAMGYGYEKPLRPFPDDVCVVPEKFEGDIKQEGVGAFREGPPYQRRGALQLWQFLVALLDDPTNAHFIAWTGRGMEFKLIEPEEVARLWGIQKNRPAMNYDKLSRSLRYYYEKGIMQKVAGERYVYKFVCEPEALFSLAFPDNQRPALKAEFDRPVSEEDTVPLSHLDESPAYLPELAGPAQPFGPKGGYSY
# ETV1 = ETV1 (UniProt P50549)
# ERF = target: T2, ERF (UniProt P50548)
# T2 sequence: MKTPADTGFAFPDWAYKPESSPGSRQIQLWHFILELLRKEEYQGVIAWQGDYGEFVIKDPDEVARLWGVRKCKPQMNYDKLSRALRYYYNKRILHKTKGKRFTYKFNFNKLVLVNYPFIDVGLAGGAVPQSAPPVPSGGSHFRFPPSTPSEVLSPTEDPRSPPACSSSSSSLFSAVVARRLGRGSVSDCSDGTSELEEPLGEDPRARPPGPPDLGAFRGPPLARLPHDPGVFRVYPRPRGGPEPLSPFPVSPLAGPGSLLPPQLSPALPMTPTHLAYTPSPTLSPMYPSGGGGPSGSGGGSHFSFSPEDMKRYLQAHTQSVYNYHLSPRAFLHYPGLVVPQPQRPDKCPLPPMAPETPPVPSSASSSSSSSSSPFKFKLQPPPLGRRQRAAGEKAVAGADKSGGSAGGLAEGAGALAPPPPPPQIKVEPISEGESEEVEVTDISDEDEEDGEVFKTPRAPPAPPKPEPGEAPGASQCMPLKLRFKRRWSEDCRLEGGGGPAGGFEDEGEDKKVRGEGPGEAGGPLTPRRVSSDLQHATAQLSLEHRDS
# ELF1 = ELF1 (UniProt P32519)
Sequence,binding signal (ETV4),binding signal (ETV1),binding signal (ERF),binding signal (ELF1)
AAATGA,1.26,1.29,,
GCTCAA,1.09,1.1,,
TTGCCT,1.25,1.37,,
CTTCCT,3.08,3.18,,
ACAATC,1.14,1.16,,
ACACAC,1.16,1.17,,
ACAATA,1.17,1.13,,
CTAAGA,1.21,1.22,,
CTCATT,1.53,1.52,,
TGAACT,1.19,1.24,,
ATGGAT,1.14,1.06,,
GGCTCC,1.51,1.24,,
ACACTT,1.86,1.77,,
CCGGAA,5.75,6.04,,
AAGAAT,1.14,1.15,,
CTTGTG,1.51,1.44,,
ACCTAC,1.26,1.23,,
GAATCC,1.15,1.13,,
TCGCTA,1.04,1.08,,
TTAATT,1.37,1.34,,
GACCTG,1.29,1.21,,
TTAGAA,1.05,1.11,,
TATCAG,1.14,1.14,,
ATATGT,1.18,1.12,,

Sequence,binding signal (ETV4),binding signal (ETV1),binding signal (ERF),binding signal (ELF1)
AGCTTC,1.75,1.62,,
CGATAT,1.19,0.979,,
TACTGG,1.09,0.988,,
GATTCC,1.11,1.21,,
TATCGA,1.32,1.31,,
TCACAC,1.37,1.33,,
CGGCTA,1.13,1.2,1.07,
GCGTTC,1.11,1.28,,
TCCCAA,1.15,1.2,,
CCAATG,1.15,1.06,,
TTCTTC,1.87,1.9,1.78,
ACCATA,1.13,1.09,,
AAATTT,1.3,1.35,1.43,
CGATCC,1.15,1.25,,
CTCAAC,1.31,1.24,1.15,
CCTACG,1.44,1.47,1.37,
CTGCCG,1.31,1.34,,
TCTCCC,1.69,1.78,,
AAGATA,1.09,1.2,,
TATCCT,1.8,1.72,,
AACCTC,1.24,1.24,1.26,
AGATTC,1.19,1.22,,
CGTATG,1.07,1.04,,
CAGCTT,1.21,1.16,,

# Some of the entries above, reformatted.
Sequence	binding signal (ETV4)	binding signal (ETV1)	binding signal (ERF)	binding signal (ELF1)
ATATGT	1.18	1.12		
AGCTTC	1.75	1.62		
CGATAT	1.19	0.979		
TACTGG	1.09	0.988		
GATTCC	1.11	1.21		
TATCGA	1.32	1.31		
TCACAC	1.37	1.33		
CGGCTA	1.13	1.2	1.07	
GCGTTC	1.11	1.28		
TCCCAA	1.15	1.2		
CCAATG	1.15	1.06		
TTCTTC	1.87	1.9	1.78	
ACCATA	1.13	1.09		
AAATTT	1.3	1.35	1.43	
CGATCC	1.15	1.25		
CTCAAC	1.31	1.24	1.15	
CCTACG	1.44	1.47	1.37	
CTGCCG	1.31	1.34		
TCTCCC	1.69	1.78		
AAGATA	1.09	1.2		
TATCCT	1.8	1.72		
AACCTC	1.24	1.24	1.26	
AGATTC	1.19	1.22		

# Following part

Sequence,binding signal (ETV4),binding signal (ETV1),binding signal (ERF),binding signal (ELF1)
GGTATT,1.12,1.16,,
ATTTAT,1.33,1.43,1.51,
AGGCTC,1.1,1.06,,
GCCGAC,1.1,1.04,,
CTGCAC,1.21,1.13,1.11,
TAGTTT,1.2,1.24,,
CTCCTA,1.35,1.29,,
AGCTTT,1.08,1.1,,
TTATTT,1.31,1.52,,
TGAAAC,1.3,1.27,,
CGATCT,1.41,1.24,,
TAGCCC,1.29,1.12,,
GGTCTT,1.23,1.11,,
CATTTC,1.8,1.84,,
CTCAGG,1.04,0.963,,
CTCCTT,1.78,1.69,1.86,
GATGCC,1.37,1.36,,
GACATC,1.41,1.33,,
TATAGT,1.01,1.11,1.16,
TTACTG,1.07,1.01,,
TCTTTA,1.32,,1.1,
AGACCT,1.12,,0.996,1.05
CCTCTC,1.41,,,1.43
GCATCC,1.64,,1.43,

Sequence,binding signal (ETV4),binding signal (ETV1),binding signal (ERF),binding signal (ELF1)
TATTGT,1.28,,1.44,
ATACTA,1.07,,1.09,1.21
TTGCAC,1.33,,,1.28
GTATGC,1.15,,1.05,1.2
TTAACT,1.25,,1.23,1.27
TTGCGT,1.09,,1.21,
CAATTG,1.25,,1.29,
ATATCG,1.28,,1.23,1.16
TTTAGC,1.08,,1.19,
CCCAAT,1.25,,,1.29
TCGCAA,1.14,,1.27,1.19
TCCCCT,1.73,,,1.74
AAAATT,1.32,,1.48,1.34
ATTATG,1.22,,1.11,1.2
CGTACT,1.22,,1.27,1.27
CTTTTT,1.33,,1.31,
TGGCAA,1.12,,1.21,1.2
CTGCTA,1.41,,1.49,1.47
CCGCGT,1.15,,1.08,1.1
TCTGTC,1.18,,1.31,
CTTTCA,1.35,,1.44,
AACAGG,1.09,,1.16,1.08
TTTATG,1.25,,1.31,
CTCTTC,1.71,,1.62,1.66

Sequence,binding signal (ETV4),binding signal (ETV1),binding signal (ERF),binding signal (ELF1)
CTAATC,1.38,,,1.32
CGACCG,1.29,,1.17,1.17
AACCAT,1.13,,1.07,1.18
AAGCGA,1.12,,1.02,
AATTCC,1.9,,1.65,1.86
AAGGAA,1.16,,,1.25
CCGCAC,1.54,,1.46,
ATCCAA,1.23,,0.993,1.2
GCCTCC,1.36,,1.39,1.27
TTCAAA,1.26,,1.26,1.34
ATCGAT,1.08,,1.13,1.15
ATGAGC,1.3,,,1.24
TATTAT,1.23,,,1.25
CGATTC,1.14,,,1.24
TTAACG,1.2,,,1.23
GTGCTC,1.23,,,1.19
CACTAA,1.18,,,1.18
CTCTTT,1.55,,,1.53
GGAAGC,1.68,,,1.39
TTTGAA,1.29,,,1.23
CAAAAT,1.15,,,1.18
CACGCT,1.38,,,1.34
AATGGC,1.48,,,1.39
TAGCTA,1.33,,,1.25
